Measured values published in publication PMC5495492.
No constants are given. Whether binding was seen depends on the method and setting. For some of these results: Binding seen in cells or lysates may run through a third protein. Some entries that bind do so weakly or less than the wild type. Where a sequence is shown, tags or fusion partners need not be part of it.

T1: YFP^n-mTCP4 (full-length mTCP4 fused to the N-terminal half of enhanced YFP) (Arabidopsis thaliana) (UniProt Q8LPR5)
T1 sequence: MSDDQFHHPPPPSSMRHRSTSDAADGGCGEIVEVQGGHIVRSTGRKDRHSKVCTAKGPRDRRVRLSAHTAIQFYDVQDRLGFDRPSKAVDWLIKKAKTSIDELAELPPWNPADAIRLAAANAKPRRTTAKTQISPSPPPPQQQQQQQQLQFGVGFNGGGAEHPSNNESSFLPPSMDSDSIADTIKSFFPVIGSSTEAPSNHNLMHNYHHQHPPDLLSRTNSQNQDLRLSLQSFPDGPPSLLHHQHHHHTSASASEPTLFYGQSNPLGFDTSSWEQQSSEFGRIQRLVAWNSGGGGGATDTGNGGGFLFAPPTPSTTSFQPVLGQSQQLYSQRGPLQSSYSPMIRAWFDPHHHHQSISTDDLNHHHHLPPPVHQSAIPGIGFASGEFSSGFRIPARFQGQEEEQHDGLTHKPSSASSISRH

T2: TCP4, full length, Gal4 fusion for yeast two-hybrid (Arabidopsis thaliana) (UniProt Q8LPR5)
T2 sequence: T1 sequence

B1: TCP2, full length, fused to YFP^c (protein, UniProt Q93V43 1-365)
chain: MIGDLMKNNNNGDVVDNEVNNRLSRWHHNSSRIIRVSRASGGKDRHSKVLTSKGPRDRRVRLSVSTALQFYDLQDRLGYDQPSKAVEWLIKAAEDSISELPSLNNTHFPTDDENHQNQTLTTVAANSLSKSACSSNSDTSKNSSGLSLSRSELRDKARERARERTAKETKERDHNHTSFTDLLNSGSDPVNSNRQWMASAPSSSPMEYFSSGLILGSGQQTHFPISTNSHPFSSISDHHHHHPHHQHQEFSFVPDHLISPAESNGGAFNLDFNMSTPSGAGAAVSAASGGGFSGFNRGTLQSNSTNQHQSFLANLQRFPTSESGGGPQFLFGALPAENHHHNHQFQLYYENGCRNSSEHKGKGKN
B2: YFP^c-GI (full-length GI fused to the C-terminal half of enhanced YFP) (protein, UniProt Q9SQI2 1-1173)
chain: MASSSSSERWIDGLQFSSLLWPPPRDPQQHKDQVVAYVEYFGQFTSEQFPDDIAELVRHQYPSTEKRLLDDVLAMFVLHHPEHGHAVILPIISCLIDGSLVYSKEAHPFASFISLVCPSSENDYSEQWALACGEILRILTHYNRPIYKTEQQNGDTERNCLSKATTSGSPTSEPKAGSPTQHERKPLRPLSPWISDILLAAPLGIRSDYFRWCSGVMGKYAAGELKPPTIASRGSGKHPQLMPSTPRWAVANGAGVILSVCDDEVARYETATLTAVAVPALLLPPPTTSLDEHLVAGLPALEPYARLFHRYYAIATPSATQRLLLGLLEAPPSWAPDALDAAVQLVELLRAAEDYASGVRLPRNWMHLHFLRAIGIAMSMRAGVAADAAAALLFRILSQPALLFPPLSQVEGVEIQHAPIGGYSSNYRKQIEVPAAEATIEATAQGIASMLCAHGPEVEWRICTIWEAAYGLIPLNSSAVDLPEIIVATPLQPPILSWNLYIPLLKVLEYLPRGSPSEACLMKIFVATVETILSRTFPPESSRELTRKARSSFTTRSATKNLAMSELRAMVHALFLESCAGVELASRLLFVVLTVCVSHEAQSSGSKRPRSEYASTTENIEANQPVSNNQTANRKSRNVKGQGPVAAFDSYVLAAVCALACEVQLYPMISGGGNFSNSAVAGTITKPVKINGSSKEYGAGIDSAISHTRRILAILEALFSLKPSSVGTPWSYSSSEIVAAAMVAAHISELFRRSKALTHALSGLMRCKWDKEIHKRASSLYNLIDVHSKVVASIVDKAEPLEAYLKNTPVQKDSVTCLNWKQENTCASTTCFDTAVTSASRTEMNPRGNHKYARHSDEGSGRPSEKGIKDFLLDASDLANFLTADRLAGFYCGTQKLLRSVLAEKPELSFSVVSLLWHKLIAAPEIQPTAESTSAQQGWRQVVDALCNVVSATPAKAAAAVVLQAERELQPWIAKDDEEGQKMWKINQRIVKVLVELMRNHDRPESLVILASASDLLLRATDGMLVDGEACTLPQLELLEATARAIQPVLAWGPSGLAVVDGLSNLLKCRLPATIRCLSHPSAHVRALSTSVLRDIMNQSSIPIKVTPKLPTTEKNGMNSPSYRFFNAASIDWKADIQNCLNWEAHSLLSTTMPTQFLDTAARELGCTISLSQ
B3: TCP17, full length, fused to YFP^c (protein, UniProt Q9LEZ9 1-242)
chain: MGIKKEDQKSSLSLLTQRWNNPRIVRVSRAFGGKDRHSKVCTVRGLRDRRIRLSVMTAIQVYDLQERLGLSQPSKVIDWLLEVAKNDVDLLPPLQFPPGFHQLNPNLTGLGESFPGVFDLGRTQREALDLEKRKWVNLDHVFDHIDHHNHFSNSIQSNKLYFPTITSSSSSYHYNLGHLQQSLLDQSGNVTVAFSNNYNNNNLNPPAAETMSSLFPTRYPSFLGGGQLQLFSSTSSQPDHIE
B4: TCP10, full length, fused to YFP^c (protein, UniProt O82277 1-361)
chain: MGLKGYSVGEGGGEIVEVQGGHIIRATGRKDRHSKVFTSKGPRDRRVRLSAHTAIQFYDVQDRLGYDRPSKAVDWLIKKAKTAIDKLELGETTTTTTRQEPVNTKPESPTLVFQRENNDQTQFVAANLDPEDAMKTFFPATTTTNGGGGTNINFQNYPHQDDNNMVSRTTTPPPNLSQDLGLSLHPFQGNNNTVVVPETNNFTTTHFDTFGRISGWNHHDLTMTSSSSSEHQQQEQEERSNGGFMVNHHPHHHHHQPSMMTLLNSQQQQVFLGGQQQQQQRGTLQSSLFPHSFRSWDHHQTTSDHHHHQNQASSMFASSSQYGSHGMMMMQGLSFPNTTRLLHGEEATQPNSSSSPPNSHL
B5: TCP24, full length, fused to YFP^c (protein, UniProt Q9C758 1-324)
chain: MEVDEDIELQKHQEQQSRKLQRFSEDNTGLMRNWNNPSSRIIRVSRASGGKDRHSKVLTSKGLRDRRIRLSVATAIQFYDLQDRLGFDQPSKAVEWLINAASDSITDLPLLNTNFDHLDQNQNQTKSACSSGTSESSLLSLSRTEIRGKARERARERTAKDRDKDLQNAHSSFTQLLTGGFDQQPSNRNWTGGSDCFNPVQLQIPNSSSQEPMNHPFSFVPDYNFGISSSSSAINGGYSSRGTLQSNSQSLFLNNNNNITQRSSISSSSSSSSPMDSQSISFFMATPPPLDHHNHQLPETFDGRLYLYYGEGNRSSDDKAKERR
B6: TCP5, full length, fused to YFP^c (protein, UniProt Q9FME3 1-360)
chain: MRSGECDEEEIQAKQERDQNQNHQVNLNHMLQQQQPSSVSSSRQWTSAFRNPRIVRVSRTFGGKDRHSKVCTVRGLRDRRIRLSVPTAIQLYDLQDRLGLSQPSKVIDWLLEAAKDDVDKLPPLQFPHGFNQMYPNLIFGNSGFGESPSSTTSTTFPGTNLGFLENWDLGGSSRTRARLTDTTTTQRESFDLDKGKWIKNDENSNQDHQGFNTNHQQQFPLTNPYNNTSAYYNLGHLQQSLDQSGNNVTVAISNVAANNNNNLNLHPPSSSAGDGSQLFFGPTPPAMSSLFPTYPSFLGASHHHHVVDGAGHLQLFSSNSNTASQQHMMPGNTSLIRPFHHLMSSNHDTDHHSSDNESDS
B7: TCP13, full length, fused to YFP^c (protein, UniProt Q9S7W5 1-355)
chain: MNIVSWKDANDEVAGGATTRREREVKEDQEETEVRATSGKTVIKKQPTSISSSSSSWMKSKDPRIVRVSRAFGGKDRHSKVCTLRGLRDRRVRLSVPTAIQLYDLQERLGVDQPSKAVDWLLDAAKEEIDELPPLPISPENFSIFNHHQSFLNLGQRPGQDPTQLGFKINGCVQKSTTTSREENDREKGENDVVYTNNHHVGSYGTYHNLEHHHHHHQHLSLQADYHSHQLHSLVPFPSQILVCPMTTSPTTTTIQSLFPSSSSAGSGTMETLDPRQMVSHFQMPLMGNSSSSSSQNISTLYSLLHGSSSNNGGRDIDNRMSSVQFNRTNSTTTANMSRHLGSERCTSRGSDHHM
B8: TCP3, full length, fused to YFP^c (protein, UniProt Q9MAH8 1-391)
chain: MAPDNDHFLDSPSPPLLEMRHHQSATENGGGCGEIVEVQGGHIVRSTGRKDRHSKVCTAKGPRDRRVRLSAPTAIQFYDVQDRLGFDRPSKAVDWLITKAKSAIDDLAQLPPWNPADTLRQHAAAAANAKPRKTKTLISPPPPQPEETEHHRIGEEEDNESSFLPASMDSDSIADTIKSFFPVASTQQSYHHQPPSRGNTQNQDLLRLSLQSFQNGPPFPNQTEPALFSGQSNNQLAFDSSTASWEQSHQSPEFGKIQRLVSWNNVGAAESAGSTGGFVFASPSSLHPVYSQSQLLSQRGPLQSINTPMIRAWFDPHHHHHHHQQSMTTDDLHHHHPYHIPPGIHQSAIPGIAFASSGEFSGFRIPARFQGEQEEHGGDNKPSSASSDSRH
B9: GIGANTEA (GI), full length, Gal4 fusion for yeast two-hybrid (protein, UniProt Q9SQI2 1-1173)
chain: B2 chain
B10: N-terminal half of GI (GI-N; amino acid residues 1-391), Gal4 fusion for yeast two-hybrid (domain or fragment, UniProt Q9SQI2 1-391)
chain: MASSSSSERWIDGLQFSSLLWPPPRDPQQHKDQVVAYVEYFGQFTSEQFPDDIAELVRHQYPSTEKRLLDDVLAMFVLHHPEHGHAVILPIISCLIDGSLVYSKEAHPFASFISLVCPSSENDYSEQWALACGEILRILTHYNRPIYKTEQQNGDTERNCLSKATTSGSPTSEPKAGSPTQHERKPLRPLSPWISDILLAAPLGIRSDYFRWCSGVMGKYAAGELKPPTIASRGSGKHPQLMPSTPRWAVANGAGVILSVCDDEVARYETATLTAVAVPALLLPPPTTSLDEHLVAGLPALEPYARLFHRYYAIATPSATQRLLLGLLEAPPSWAPDALDAAVQLVELLRAAEDYASGVRLPRNWMHLHFLRAIGIAMSMRAGVAADAAAA

Target: T1, YFP^n-mTCP4 (full-length mTCP4 fused to the N-terminal half of enhanced YFP) (Arabidopsis thaliana)
Assay: split reporter; BiFC with halves of enhanced YFP, co-expressed by agroinfiltration in N. benthamiana leaf epidermal cells; confocal imaging 2-3 days after infiltration; H2B-RFP as nuclear marker; positive when more than 70% of H2B-RFP positive cells showed YFP

binding, binds:
B1
B2
B3
B4
B5
B6
B7
B8

Target: T2, TCP4, full length, Gal4 fusion for yeast two-hybrid (Arabidopsis thaliana)
Assay: two-hybrid; Gal4 DBD and AD fusions in yeast; TCP4 and FBH1 in the bait vector pASGW-attR; growth on -LWH (for TCP4 also -LWH + 10 mM 3-aminotriazole) against -LW

binding, binds:
B9
B10
